{"source": "PubChem BioAssay AID1347075", "about": "(National Center for Advancing Translational Sciences (NCATS), 2019)", "note": "Hit rate of the full screen: of about 400,000 compounds, about 5,500 (1.4%) were called active. Inconclusive results, whose numbers are uncertain, are shown with a selection of clear calls. Calls follow the shape of the dose curve; as a rule, active = well fitted cell-killing curve with a large enough effect; inconclusive = small, poorly fitted or top-dose-only effect, or effect the other way; inactive = flat fitted curve, though single readings scatter. A potency beside an inconclusive call is a rough fit, not a confirmed value. % is scaled to controls: 0 for no effect and ±100 for the full control effect; potency is read from the fitted curve at half-maximal effect."}
{"test": "qHTS assay for MDR1-selective chemotherapeutics: Primary screen using the parental adenocarcinoma cell KB-3-1; also: nearly all actives have a fitted effect of over 60% in size", "conditions": "KB-3-1 viability, CellTiter-Glo ATP luminescence, 72 h; activity change, negative = cytotoxic: at 46.1 µM (top of the series)", "summary_of_the_method": "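Cytotoxicity in the drug-sensitive parental line KB-3-1 was scored as loss of CellTiter-Glo luminescence following 72 h incubation with compound. Values come from curve fitting of normalized concentration-response data.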"}
{"smiles": "Cc1ccc(SC[C@H](Cc2ccccc2)N2CC[C@@H](C)CCC2=O)cc1", "Potency": "inconclusive: 29.1 µM [cytotoxic, single point]"}
{"smiles": "COc1ccc(-n2c(=O)c3c4c(sc3n3c(SCCC(C)C)nnc23)COC(C(C)C)C4)cc1", "note": "(stereo unspecified)", "Potency": "inactive"}
{"smiles": "Nc1nc2ncccc2cc1C(=O)NCCc1cccs1", "Potency": "inconclusive: 18.4 µM [cytotoxic, partial curve]"}
{"smiles": "CC(=O)c1sc(-c2ccccc2)cc1N", "Potency": "inactive"}
{"smiles": "COC(=O)c1ccc2c(=O)n(CCN3CCOCC3)c(SCC(=O)C(C)(C)C)nc2c1", "Potency": "inactive"}
{"smiles": "COc1cccc(-c2c(-c3cc(OC)cc(OC)c3)n(C)c3ccc(-c4ccc5[nH]ccc5c4)cc23)c1", "Potency": "inconclusive: 11.6 µM [cytotoxic, partial curve, poor fit]"}
{"smiles": "CCCCCCNC(=O)O[C@H]1Cn2c(=O)n(CCCCCC)c(=O)n2[C@@H]2CN(S(=O)(=O)c3ccc(C)cc3)C[C@]12O", "Potency": "inconclusive: 29.1 µM [cytotoxic, single point]"}
{"smiles": "O=C(NNC(=O)c1ccc2ccccc2n1)c1ccc(O)cc1", "Potency": "inconclusive: 16.4 µM [cytotoxic, single point]"}
{"smiles": "COc1ccc(CN2C(=O)C(Cc3ccccc3)Nc3ncnc(N4CCN(c5ccccc5)CC4)c32)cc1", "note": "(stereo unspecified)", "Potency": "inactive"}
{"smiles": "O=C(Nc1cccc(S(=O)(=O)Nc2ccc(Cl)cc2)c1)c1ccc(Cl)nc1", "Potency": "inconclusive: 18.4 µM [cytotoxic, single point]"}
{"smiles": "CCOC(=O)CC1C(=O)NCCN1c1nc2c(C)cccn2c(=O)c1/C=C1\\SC(=S)N(C(C)CC)C1=O", "note": "(stereo unspecified)", "Potency": "inconclusive: 23.1 µM [cytotoxic, single point]"}
{"smiles": "Cc1ccc(-c2nc3c(C)cc(Br)cn3c2Cc2ccccc2)cc1", "Potency": "inconclusive: 32.6 µM [cytotoxic, single point]"}
{"smiles": "N#CCCn1cc(C(=O)Nc2cccc(C(=O)O)c2)c(-c2ccc(Cl)cc2)n1", "Potency": "inactive"}
{"smiles": "Cn1c(SCC(=O)NCC2CCCO2)ncc(C(=O)Nc2ccc(Cl)cc2)c1=O", "note": "(stereo unspecified)", "Potency": "inconclusive: 10.3 µM [cytotoxic, partial curve]"}
{"smiles": "Cc1cc(C(=O)NNC(=O)c2cccc(C(F)(F)F)c2)no1", "Potency": "inconclusive: 0.0411 µM [rising, full curve]"}
{"smiles": "COc1ccc(Cn2c(CO)cnc2SCC(=O)Nc2cccc(NC(C)=O)c2)cc1", "Potency": "inactive"}
{"smiles": "CC(=O)Nc1ccc(C(=O)OCC(=O)N(c2ccccc2)C2CCCCC2)cc1", "Potency": "inactive"}
{"smiles": "O=S1(=O)N=C(N/N=C/C=C/c2ccccc2)c2ccccc21", "Potency": "inactive"}
{"smiles": "Cn1c(-c2ccccc2)cnc1NCc1ccccc1", "Potency": "inconclusive: 29.1 µM [cytotoxic, single point]"}
{"smiles": "COc1ccc(-c2cc(NC=O)c3ncc(-c4cccc(C(F)(F)F)c4)n3c2)c(OC)c1", "Potency": "inconclusive: 29.1 µM [cytotoxic, single point]"}
{"smiles": "COc1ccc(-n2c(=O)c(NC(=O)c3ccccc3)c3n(c2=S)CCCCC3)cc1", "Potency": "inconclusive: 10.3 µM [rising, partial curve, poor fit]"}
{"smiles": "Cc1cc(Br)ccc1NC(=O)C1CCN(S(=O)(=O)c2ccc(Br)s2)CC1", "Potency": "inactive"}
{"smiles": "Nc1nc(N)c2c(OCc3ccc(C(F)(F)F)cc3)cccc2n1", "Potency": "inconclusive: 4.61 µM [cytotoxic, partial curve]"}
{"smiles": "CCOC(=O)c1ccc(N2C(=O)c3n[nH]c(-c4cccs4)c3C2c2ccc(Cl)cc2Cl)cc1", "note": "(stereo unspecified)", "Potency": "inconclusive: 23.1 µM [cytotoxic, single point]"}
{"smiles": "NC(=O)NC(=O)COC(=O)c1cccc(NS(=O)(=O)/C=C/c2ccccc2)c1", "Potency": "inactive"}
{"smiles": "O=C1O/C(=C\\C(=O)N2CCOCC2)c2ccccc21", "Potency": "inconclusive: 29.1 µM [cytotoxic, single point]"}
{"smiles": "CCCCCCOc1ccc(C(=O)O)cc1", "Potency": "inactive"}
{"smiles": "COc1ccc(CN2CCNC(=O)C2CC(=O)NCCSc2nccn2C)cc1OC", "note": "(stereo unspecified)", "Potency": "inactive"}
{"smiles": "COc1ccc(CC(N)c2csc(Nc3ncccn3)n2)cc1", "note": "(stereo unspecified)", "Potency": "inactive"}
{"smiles": "Cc1noc(C)c1COc1ccccc1C(=O)NCCc1ccc(Cl)cc1", "Potency": "inactive"}
{"smiles": "COc1cccc(C(=O)N2N=C(c3cccc(OC)c3)CC2(O)C(F)(F)F)c1", "note": "(stereo unspecified)", "Potency": "inactive"}
{"smiles": "Cc1ccc(OC(=O)CSc2nnc(CNC(=O)c3ccccc3)o2)cc1", "Potency": "inactive"}
{"smiles": "CC(=O)N1CCCc2cc(S(=O)(=O)N3CCCC(C(=O)N4CCN(c5cc(C)ccc5C)CC4)C3)ccc21", "note": "(stereo unspecified)", "Potency": "inconclusive: 8.2 µM [cytotoxic, partial curve]"}
{"smiles": "Cc1nc(NCc2cccnc2)c2c3c(sc2n1)CCCC3", "Potency": "inconclusive: 20.6 µM [cytotoxic, single point]"}
{"smiles": "COc1cccc(C2(c3cccc(OC)c3)CC2C(=O)Nc2ccccc2Cl)c1", "note": "(stereo unspecified)", "Potency": "inactive"}
{"smiles": "COc1cc(OC)c2nc(C)c3c(c2c1)N(c1ccc(O)cc1)CC3", "Potency": "inconclusive: 29.1 µM [cytotoxic, single point]"}
{"smiles": "Oc1c(CN2CCN(c3ccccn3)CC2)cc(Cl)c2cccnc12", "Potency": "inconclusive: 29.1 µM [cytotoxic, single point]"}
{"smiles": "CC(=O)N1CCCC(C)(C(=O)N(C)Cc2cccc3ccccc23)C1", "note": "(stereo unspecified)", "Potency": "inactive"}
{"smiles": "C/C(=N\\NC(=O)c1ccccc1-n1cccc1)c1ccccn1", "Potency": "active: 10.3 µM"}
{"smiles": "Oc1ccccc1OCc1nc2ccccc2s1", "Potency": "inactive"}
{"smiles": "CCOc1ccc(N=Cc2c(C)[nH]n(-c3nc4ccccc4[nH]3)c2=O)cc1", "Potency": "inconclusive: 7.31 µM [cytotoxic, partial curve, poor fit]"}
{"smiles": "CC(=O)Nc1ccc(NC(=O)c2ccc(C)c(S(=O)(=O)Nc3cccc(C)c3)c2)cc1", "Potency": "inconclusive: 25.9 µM [cytotoxic, partial curve, poor fit]"}
{"smiles": "C=CC(=O)Nc1ccc(Nc2nc(NC3CCC(N(C)C)CC3)nc3c2ncn3C(C)C)cc1", "note": "(stereo unspecified)", "Potency": "active: 1.03 µM"}
{"smiles": "COc1c2ccc(C(=O)NCc3cc(C(F)(F)F)cc(C(F)(F)F)c3)cc2nn1C", "Potency": "inconclusive: 29.1 µM [cytotoxic, single point]"}
{"smiles": "CCOC(=O)c1sc(NC(=S)NC(=O)c2ccccc2)c(C(=O)OCC)c1C", "Potency": "inconclusive: 29.1 µM [cytotoxic, single point]"}
{"smiles": "Cc1cc(Br)ccc1SCC(=O)Nc1cccnc1", "Potency": "inactive"}
{"smiles": "COc1ccccc1CNC(=O)COc1ccc(Br)c(C)c1", "Potency": "inconclusive: 29.1 µM [cytotoxic, single point]"}
{"smiles": "CCOc1cc(/C=N/NC(=O)Cn2nc([N+](=O)[O-])cc2C)cc(Br)c1OCc1ccccc1C", "Potency": "inconclusive: 29.1 µM [cytotoxic, single point]"}
{"smiles": "COC(=O)c1cc(NC(=O)c2cccc([N+](=O)[O-])c2C)ccc1Cl", "Potency": "inconclusive: 25.9 µM [cytotoxic, single point]"}
{"smiles": "Cc1c(C(=O)NCc2ccccc2C(F)(F)F)sc(=O)n1Cc1ccc(S(=O)(=O)N(C)C)cc1", "Potency": "inconclusive: 20.6 µM [cytotoxic, partial curve]"}
{"smiles": "CN(O)/C=c1/ccc2c(n1)C(=O)C=CC=2", "Potency": "inconclusive: 20.6 µM [cytotoxic, single point]"}
{"smiles": "CN(CC(=O)Nc1ccc(Cl)cc1)CC(=O)Nc1cc(Cl)ccc1C#N", "Potency": "inconclusive: 32.6 µM [cytotoxic, single point]"}
{"smiles": "CCCNC(=O)N1CCN(S(=O)(=O)c2ccc3c(ccn3C)c2)CC1", "Potency": "inactive"}
{"smiles": "FC(F)(F)c1cccc(Nc2ncnc3ccccc23)c1", "Potency": "inconclusive: 20.6 µM [cytotoxic, partial curve, poor fit]"}
{"smiles": "COc1ccc(CNC(=S)NNC(=O)c2cc3ccccc3o2)cc1", "activity change, negative = cytotoxic": "inconclusive: 31.1%"}
{"smiles": "O=c1cc(-c2ccc(O)c(O)c2)oc2cc(O[C@@H]3O[C@H](CO)[C@@H](O)[C@H](O)[C@H]3O)cc(O)c12", "Potency": "inconclusive: 29.1 µM [cytotoxic, single point]"}
{"smiles": "C=CC(COCc1ccccc1)N(C(=O)OC(C)(C)C)S(=O)(=O)c1ccccc1Br", "note": "(stereo unspecified)", "Potency": "inactive"}
{"smiles": "CC(C)c1nc(N2CCN(C(=O)c3ccccc3)CC2)c(C#N)c2c1COC(C)(C)C2", "Potency": "inconclusive: 20.6 µM [cytotoxic, single point]"}
{"smiles": "CN(C)S(=O)(=O)c1cccc(COc2ncnc3c(Cl)cc(Cl)cc23)c1", "Potency": "inactive"}
{"smiles": "COc1ccccc1N1CCN(C(=O)COc2ccc(Cl)cc2Br)CC1", "Potency": "inconclusive: 18.4 µM [cytotoxic, single point]"}
{"smiles": "COc1c(-c2ccc(O)c(O)c2)oc2cc(O)cc(O)c2c1=O", "Potency": "inactive"}
{"smiles": "Cc1ccc(/C=C2/SC(=S)N(CCC(=O)N3CCN(C)CC3)C2=O)cc1", "Potency": "inconclusive: 9.2 µM [cytotoxic, partial curve]"}
{"smiles": "CC(CNC(=O)CCCn1c(=O)c2cccn2c2cccnc21)c1ccccc1", "note": "(stereo unspecified)", "Potency": "inactive"}
{"smiles": "O=C(Nc1ccc(Cl)cc1)Nc1ccc(N2CCCC2)c(S(=O)(=O)Nc2ccccc2Cl)c1", "Potency": "inconclusive: 8.2 µM [cytotoxic, partial curve, poor fit]"}
{"smiles": "COc1ccc(CCNCC2C(Oc3ccc(Cl)cc3)C(=O)N2c2ccccc2C)cc1OC", "note": "(stereo unspecified)", "Potency": "inconclusive: 29.1 µM [cytotoxic, single point]"}
{"smiles": "O=C(Nc1cccc(-c2ccc(N3CCCCC3)nn2)c1)C(F)(F)F", "Potency": "inconclusive: 14.6 µM [cytotoxic, partial curve]"}
{"smiles": "Cc1ccc(-n2[nH]c(C)c(/C=N/N3C(=O)c4cccc5cccc(c45)C3=O)c2=O)cc1", "Potency": "inconclusive: 29.1 µM [cytotoxic, single point]"}
{"smiles": "COc1cc(C)ccc1OCCOCCOc1cccc2ccc(C)nc12", "Potency": "inactive"}
{"smiles": "N#CC(C#N)=C1NC2(CCCCC2)Cc2ccccc21", "Potency": "inactive"}
{"smiles": "CNc1nc(-c2ccc3c(c2)CCN3C(=O)c2cccc(F)c2)cs1", "Potency": "active: 14.6 µM"}
{"smiles": "CCCOc1ccc(Cc2c(Cl)nc(SC)nc2N(C)C)cc1", "Potency": "inconclusive: 8.2 µM [cytotoxic, partial curve, poor fit]"}
